The assay has as its target telomerase reverse transcriptase (TERT) (UniProt O14746). Description: co-IP; HEK293T cells transfected with TERT-Flag and TRIM43-HA or SYVN1-HA, with or without pEGFP-CagA; lysis in EBC buffer (50 mM Tris pH 7.5, 120 mM NaCl, 0.5% NP-40); anti-HA or anti-Flag agarose beads, 4 °C, 3 h; washed with NETN buffer; western blot. In general terms: In western blotting, separated proteins are transferred to a membrane and probed.

Amino acid sequences for entries named in this document (tags omitted).
UniProt O14746: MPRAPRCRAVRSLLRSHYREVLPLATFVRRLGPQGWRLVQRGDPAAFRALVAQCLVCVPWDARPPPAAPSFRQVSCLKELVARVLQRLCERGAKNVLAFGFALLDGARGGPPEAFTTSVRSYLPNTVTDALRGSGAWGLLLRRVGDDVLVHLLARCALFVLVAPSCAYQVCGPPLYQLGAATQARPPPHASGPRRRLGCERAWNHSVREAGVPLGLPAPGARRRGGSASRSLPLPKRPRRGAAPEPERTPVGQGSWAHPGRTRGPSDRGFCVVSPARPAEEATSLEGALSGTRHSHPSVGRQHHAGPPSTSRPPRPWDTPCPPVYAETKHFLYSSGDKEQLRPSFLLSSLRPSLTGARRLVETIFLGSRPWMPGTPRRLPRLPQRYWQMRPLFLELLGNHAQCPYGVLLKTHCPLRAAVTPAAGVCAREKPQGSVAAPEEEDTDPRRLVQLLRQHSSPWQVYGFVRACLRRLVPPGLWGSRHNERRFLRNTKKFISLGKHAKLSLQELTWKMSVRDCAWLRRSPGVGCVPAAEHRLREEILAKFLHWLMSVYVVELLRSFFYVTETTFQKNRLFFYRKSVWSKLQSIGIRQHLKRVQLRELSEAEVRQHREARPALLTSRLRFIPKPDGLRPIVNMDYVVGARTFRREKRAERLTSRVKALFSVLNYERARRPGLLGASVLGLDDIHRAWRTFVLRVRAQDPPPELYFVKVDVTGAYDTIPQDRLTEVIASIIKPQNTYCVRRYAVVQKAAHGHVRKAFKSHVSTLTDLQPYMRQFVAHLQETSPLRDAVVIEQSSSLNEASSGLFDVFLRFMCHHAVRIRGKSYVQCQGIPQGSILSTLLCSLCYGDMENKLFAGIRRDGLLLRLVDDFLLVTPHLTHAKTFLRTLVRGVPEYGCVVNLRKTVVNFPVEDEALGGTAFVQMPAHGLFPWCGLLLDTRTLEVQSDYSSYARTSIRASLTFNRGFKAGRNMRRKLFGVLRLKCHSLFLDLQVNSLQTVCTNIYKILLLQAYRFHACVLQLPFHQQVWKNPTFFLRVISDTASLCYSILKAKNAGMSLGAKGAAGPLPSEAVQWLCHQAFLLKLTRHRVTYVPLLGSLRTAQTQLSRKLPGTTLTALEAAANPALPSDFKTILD

No constants are given. Whether binding was seen depends on the method and setting. Binding seen in cells or lysates may run through a third protein. Some entries that bind do so weakly or less than the wild type.

B1: TRIM43 (enzyme, UniProt Q96BQ3 1-446)
chain: MDSDFSHAFQKELTCVICLNYLVDPVTICCGHSFCRPCLCLSWEEAQSPANCPACREPSPKMDFKTNILLKNLVTIARKASLWQFLSSEKQICGTHRQTKKMFCDMDKSLLCLLCSNSQEHGAHKHHPIEEAAEEHREKLLKQMRILWKKIQENQRNLYEEGRTAFLWRGNVVLRAQMIRNEYRKLHPVLHKEEKQHLERLNKEYQEIFQQLQRSWVKMDQKSKHLKEMYQELMEMCHKPDVELLQDLGDIVARSESVLLHMPQPVNPELTAGPITGLVYRLNRFRVEISFHFEVTNHNIRLFEDVRSWMFRRGPLNSDRSDYFAAWGARVFSFGKHYWELDVDNSCDWALGVCNNSWIRKNSTMVNSEDIFLLLCLKVDNHFNLLTTSPVFPHYIEKPLGRVGVFLDFESGSVSFLNVTKSSLIWSYPAGSLTFPVRPFFYTGHR
B1: the binding entry is listed as “binds”.

For the origin of these results see article PMC11744579.
